These are yes or no findings as the source states them, for the method shown. Binding seen in cells or lysates may run through a third protein. These calls come from enrichment with a bait or labelling near it, and not all partners need be listed.
Experiments:
[1] = biological target: 3xFlag-WT-YAP1 (isoform with 504aa) (human) (UniProt P46937); assay: affinity purification with mass spectrometry; Flag-IP-MS: lysate of SRC-activated normal epithelial cells stably expressing 3xFlag-WT-YAP1 or 3xFlag-mut-YAP1; anti-Flag resin 2 h at 4 °C, elution with 3xFlag peptide, then streptavidin resin, elution with 4 mM biotin; LC/ESI MS/MS
[2] = biological target: 3xFlag-mut-YAP1 (3YF mutant) (human) (UniProt P46937); assay: as above

Chains of the proteins cited; added tags and fusions are not shown.
UniProt Q13887: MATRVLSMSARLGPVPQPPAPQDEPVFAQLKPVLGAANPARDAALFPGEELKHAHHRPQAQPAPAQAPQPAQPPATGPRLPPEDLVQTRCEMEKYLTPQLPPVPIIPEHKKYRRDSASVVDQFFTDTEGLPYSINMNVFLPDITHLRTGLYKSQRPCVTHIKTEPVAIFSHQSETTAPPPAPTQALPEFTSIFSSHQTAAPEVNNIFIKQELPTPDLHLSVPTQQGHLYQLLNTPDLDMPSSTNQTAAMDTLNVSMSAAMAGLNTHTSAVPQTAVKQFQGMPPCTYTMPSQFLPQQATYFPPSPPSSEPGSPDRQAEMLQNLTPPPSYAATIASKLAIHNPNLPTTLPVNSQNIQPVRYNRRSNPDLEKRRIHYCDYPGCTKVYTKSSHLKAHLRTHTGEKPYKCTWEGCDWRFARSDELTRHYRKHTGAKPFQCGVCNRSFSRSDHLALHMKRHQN
UniProt P05412: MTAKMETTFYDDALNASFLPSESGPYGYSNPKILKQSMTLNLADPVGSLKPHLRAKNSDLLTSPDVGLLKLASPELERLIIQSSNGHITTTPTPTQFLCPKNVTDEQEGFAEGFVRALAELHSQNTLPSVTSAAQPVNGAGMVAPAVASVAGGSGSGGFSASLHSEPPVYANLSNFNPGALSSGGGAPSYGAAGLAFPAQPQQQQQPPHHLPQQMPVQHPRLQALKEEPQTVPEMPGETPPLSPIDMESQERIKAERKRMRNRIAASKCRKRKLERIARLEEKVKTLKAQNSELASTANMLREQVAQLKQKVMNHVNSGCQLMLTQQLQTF

| Substance | binding [1] | binding [2] |
| --- | --- | --- |
| Kruppel-like factor 5 (KLF5), endogenous (from UniProt Q13887 1-457) | binds |  |
| C-JUN, endogenous (from UniProt P05412 1-331) | binds | binds |
